This is one part of the list.
Experiments:
Test in all cases: glycan array binding signal (z-score within array); higher = stronger binding
Details in all cases: glycan notation: IUPAC condensed, linker removed
Fuc(a1-2)Gal = biological target: Fuc(a1-2)Gal
In short: (§1)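 The binding signal is a Z-score computed within each array. Data were drawn from 3228 arrays in the Consortium for Functional Glycomics database, restricted to those with a known protein sequence. Scores were averaged over arrays of the same protein sequence at different concentrations or buffers, and over linkers, and negative values can be taken as non-binding.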

Fuc(a1-2)Gal(b1-3)GalNAc = biological target: Fuc(a1-2)Gal(b1-3)GalNAc
In short: as §1

[1] = biological target: Fuc(a1-2)Gal(b1-3)GalNAc(a1-3)[Fuc(a1-2)]Gal(b1-4)Glc
In short: as §1

[2] = biological target: Fuc(a1-2)Gal(b1-3)GalNAc(a1-3)[Fuc(a1-2)]Gal(b1-4)GlcNAc
In short: as §1

[3] = biological target: Fuc(a1-2)Gal(b1-3)GalNAc(b1-3)Gal
In short: as §1

[4] = biological target: Fuc(a1-2)Gal(b1-3)GalNAc(b1-3)Gal(a1-4)Gal(b1-4)Glc
In short: as §1

[5] = biological target: Fuc(a1-2)Gal(b1-3)GalNAc(b1-4)[Neu5Ac(a2-3)]Gal(b1-4)Glc
In short: as §1

Fuc(a1-2)Gal(b1-3)GlcNAc = biological target: Fuc(a1-2)Gal(b1-3)GlcNAc
In short: as §1

[6] = biological target: Fuc(a1-2)Gal(b1-3)GlcNAc(b1-2)Man(a1-3)[Fuc(a1-2)Gal(b1-3)GlcNAc(b1-2)Man(a1-6)]Man(b1-4)GlcNAc(b1-4)GlcNAc
In short: as §1

[7] = biological target: Fuc(a1-2)Gal(b1-3)GlcNAc(b1-2)Man(a1-3)[Fuc(a1-2)Gal(b1-3)GlcNAc(b1-2)Man(a1-6)]Man(b1-4)GlcNAc(b1-4)[Fuc(a1-6)]GlcNAc
In short: as §1

[8] = biological target: Fuc(a1-2)Gal(b1-3)GlcNAc(b1-3)Gal(b1-4)Glc
In short: as §1

[9] = biological target: Fuc(a1-2)Gal(b1-3)GlcNAc(b1-3)GalNAc
In short: as §1

[10] = biological target: Fuc(a1-2)Gal(b1-3)GlcNAc(b1-3)[Fuc(a1-3)[Gal(b1-4)]GlcNAc(b1-6)]Gal(b1-4)Glc
In short: as §1

[11] = biological target: Fuc(a1-2)Gal(b1-3)GlcNAc(b1-3)[Gal(b1-4)GlcNAc(b1-6)]Gal(b1-4)Glc
In short: as §1

[12] = biological target: Fuc(a1-2)Gal(b1-3)[Fuc(a1-4)]GlcNAc
In short: as §1

[13] = biological target: Fuc(a1-2)Gal(b1-3)[Fuc(a1-4)]GlcNAc(b1-2)Man(a1-3)[Fuc(a1-2)Gal(b1-3)[Fuc(a1-4)]GlcNAc(b1-2)Man(a1-6)]Man(b1-4)GlcNAc(b1-4)GlcNAc
In short: as §1

[14] = biological target: Fuc(a1-2)Gal(b1-3)[Fuc(a1-4)]GlcNAc(b1-3)[Fuc(a1-3)[Gal(b1-4)]GlcNAc(b1-6)]Gal(b1-4)Glc
In short: as §1

[15] = biological target: Fuc(a1-2)Gal(b1-3)[Fuc(a1-4)]GlcNAc(b1-3)[Gal(b1-4)GlcNAc(b1-6)]Gal(b1-4)Glc
In short: as §1

Fuc(a1-2)Gal(b1-4)Glc = biological target: Fuc(a1-2)Gal(b1-4)Glc
In short: as §1

Fuc(a1-2)Gal(b1-4)Glc6S = biological target: Fuc(a1-2)Gal(b1-4)Glc6S
In short: as §1

Fuc(a1-2)Gal(b1-4)GlcNAc = biological target: Fuc(a1-2)Gal(b1-4)GlcNAc
In short: as §1

[16] = biological target: Fuc(a1-2)Gal(b1-4)GlcNAc(b1-2)Man(a1-3)[Fuc(a1-2)Gal(b1-4)GlcNAc(b1-2)Man(a1-6)]Man(b1-4)GlcNAc(b1-4)GlcNAc
In short: as §1

[17] = biological target: Fuc(a1-2)Gal(b1-4)GlcNAc(b1-2)Man(a1-3)[Fuc(a1-2)Gal(b1-4)GlcNAc(b1-2)Man(a1-6)]Man(b1-4)GlcNAc(b1-4)[Fuc(a1-6)]GlcNAc
In short: as §1

[18] = biological target: Fuc(a1-2)Gal(b1-4)GlcNAc(b1-2)[Fuc(a1-2)Gal(b1-4)GlcNAc(b1-4)]Man(a1-3)[Fuc(a1-2)Gal(b1-4)GlcNAc(b1-2)Man(a1-6)]Man(b1-4)GlcNAc(b1-4)GlcNAc
In short: as §1

[19] = biological target: Fuc(a1-2)Gal(b1-4)GlcNAc(b1-3)Gal(b1-4)GlcNAc
In short: as §1

[20] = biological target: Fuc(a1-2)Gal(b1-4)GlcNAc(b1-3)Gal(b1-4)GlcNAc(b1-3)Gal(b1-4)GlcNAc
In short: as §1

[21] = biological target: Fuc(a1-2)Gal(b1-4)GlcNAc(b1-3)GalNAc
In short: as §1

[22] = biological target: Fuc(a1-2)Gal(b1-4)GlcNAc6S
In short: as §1

[23] = biological target: Fuc(a1-2)Gal(b1-4)[Fuc(a1-3)]GlcNAc
In short: as §1

[24] = biological target: Fuc(a1-2)Gal(b1-4)[Fuc(a1-3)]GlcNAc(b1-2)Man(a1-3)[Fuc(a1-2)Gal(b1-4)[Fuc(a1-3)]GlcNAc(b1-2)Man(a1-6)]Man(b1-4)GlcNAc(b1-4)GlcNAc
In short: as §1

B1: rPitB (Streptococcus pneumoniae), A0A0I7U739 (protein)
chain: MSEIEIINAKKIYHDVPVIENLNITIPKGSLFTLLGASGCGKTTLLRMIAGFNSIKDGEFYFDDTKINNMEPSKRNIGLVFQNYAIFPHLTVRDNVAFGLMQKKVPKEELIQQTNKYLELMQIAQYAD
Fuc(a1-2)Gal
  glycan array binding signal (z-score): -0.805
Fuc(a1-2)Gal(b1-3)GalNAc
  glycan array binding signal (z-score): 0.167
[1]
  glycan array binding signal (z-score): 0.302
[2]
  glycan array binding signal (z-score): -0.708
[3]
  glycan array binding signal (z-score): 0.08
[4]
  glycan array binding signal (z-score): 0.358
[5]
  glycan array binding signal (z-score): -0.128
Fuc(a1-2)Gal(b1-3)GlcNAc
  glycan array binding signal (z-score): -0.794
[6]
  glycan array binding signal (z-score): 1.04
[7]
  glycan array binding signal (z-score): 0.197
[8]
  glycan array binding signal (z-score): -0.995
[9]
  glycan array binding signal (z-score): -0.687
[10]
  glycan array binding signal (z-score): -0.544
[11]
  glycan array binding signal (z-score): -0.397
[12]
  glycan array binding signal (z-score): -0.496
[13]
  glycan array binding signal (z-score): 0.882
[14]
  glycan array binding signal (z-score): 0.227
[15]
  glycan array binding signal (z-score): 0.281
Fuc(a1-2)Gal(b1-4)Glc
  glycan array binding signal (z-score): 0.199
Fuc(a1-2)Gal(b1-4)Glc6S
  glycan array binding signal (z-score): 0.021
Fuc(a1-2)Gal(b1-4)GlcNAc
  glycan array binding signal (z-score): 0.65
[16]
  glycan array binding signal (z-score): 0.433
[17]
  glycan array binding signal (z-score): -0.083
[18]
  glycan array binding signal (z-score): 0.316
[19]
  glycan array binding signal (z-score): -0.799
[20]
  glycan array binding signal (z-score): -0.283
[21]
  glycan array binding signal (z-score): 1.03
[22]
  glycan array binding signal (z-score): 0.223
[23]
  glycan array binding signal (z-score): -0.11
[24]
  glycan array binding signal (z-score): 0.584

— the supplement of paper PMC8728848
